The list does not hold the whole screen: it is rich in T/C values a quarter to a half above the control, in often repeated tests (any T/C) and in doses without a T/C. Other doses and runs of a compound stand elsewhere. T/C is the treated group as % of the vehicle group. Some doses have a count of surviving animals in place of a T/C: the source holds a T/C of zero for them, seemingly a mark for toxic or unscored doses. Some survivor counts are full or nearly so, which does not show that the dose was tolerated: the source hardly ever lists a survival T/C far under the control, and the zero likely stands for such cases as well. Survivors were counted at the toxicity check, usually on the fifth day, unless a day is given; later deaths do not show. Schedule codes are those of the source, read here as Q, the interval in days (D) or hours (H), X, the number of doses. Where survival is the endpoint, this PubChem deposit counts one and a half times the control or more as active, and values a quarter to a half above the control carry no call in these data; other NCI protocols may use other cut-offs. Some doses were run more than once; the results are listed from low to high. Some T/C values carry the count of animals alive at the toxicity check (mostly the fifth day); where none is given, no animal had died by that day.

The test system of the test is CD2F1 mice, L1210 leukemia ip, survival T/C. Description: NCI In Vivo Anticancer Drug Screen. Data for tumor model L1210 Leukemia (intraperitoneal) in CD2F1 (CDF1) mice. Conditions: higher T/C = longer survival. The essentials:
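Antitumor effect is scored in animals hosting a serially transplanted tumor. Values compare compound-dosed animals against vehicle-only controls as a simple quotient.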

[1] abbreviates: T/C endpoint: mean survival time, dose: 100.0 mg/kg/injection, schedule: Q01DX009 (ip), vehicle: saline.
[2] abbreviates: T/C endpoint: mean survival time, dose: 200.0 mg/kg/injection, schedule: Q01DX009 (ip), vehicle: saline.
[3] abbreviates: T/C endpoint: mean survival time, dose: 200.0 mg/kg/injection, schedule: Q01DX009 (ip), vehicle: Klucel (hydroxypropylcellulose) (HPC).
Where [4] appears, read: T/C endpoint: mean survival time, dose: 400.0 mg/kg/injection, schedule: Q01DX009 (ip), vehicle: Klucel (hydroxypropylcellulose) (HPC).
[5] abbreviates: T/C endpoint: mean survival time, dose: 100.0 mg/kg/injection, schedule: Q01DX009 (ip), vehicle: saline with Tween-80.
Setting [6] is: T/C endpoint: mean survival time, dose: 200.0 mg/kg/injection, schedule: Q01DX009 (ip), vehicle: saline with Tween-80.
Setting [7] is: T/C endpoint: mean survival time, dose: 400.0 mg/kg/injection, schedule: Q01DX009 (ip), vehicle: saline with Tween-80.
Setting [8] is: T/C endpoint: mean survival time, dose: 400.0 mg/kg/injection, schedule: Q04DX003 (ip), vehicle: saline with Tween-80.
[9] abbreviates: T/C endpoint: mean survival time, dose: 150.0 mg/kg/injection, schedule: Q01DX001 (ip), vehicle: saline.
The mark [10] stands for this setting: T/C endpoint: mean survival time, dose: 300.0 mg/kg/injection, schedule: Q01DX001 (ip), vehicle: saline.
[11] abbreviates: T/C endpoint: mean survival time, dose: 200.0 mg/kg/injection, schedule: Q04DX003 (ip), vehicle: saline with Tween-80.
Setting [12] is: T/C endpoint: mean survival time, dose: 200.0 mg/kg/injection, schedule: Q01DX009 (ip), vehicle: water.
The mark [13] stands for this setting: T/C endpoint: median survival time, dose: 400.0 mg/kg/injection, schedule: Q01DX009 (ip), vehicle: saline with Tween-80.
The mark [14] stands for this setting: T/C endpoint: mean survival time, dose: 400.0 mg/kg/injection, schedule: Q01DX001 (ip), vehicle: saline.

Regarding `C=CCOCC(O)CNCCCC` (configuration not stated), the survivor count is listed as 0 of 3 under setting [1] and 0 of 3 under setting [2].

As to `O=NN1CC2CCC1CC2`, under “T/C endpoint: mean survival time, dose: 20.0 mg/kg/injection, schedule: Q01DX001 (ip), vehicle: saline with Tween-80”, the survivor count was 2 of 6.

With `O=c1[nH]cnc2n[nH]nc12`, the T/C was 125 % of control (T/C endpoint: mean survival time, dose: 12.5 mg/kg/injection, schedule: Q01DX009 (ip), vehicle: Klucel (hydroxypropylcellulose) (HPC)); 128 % of control (T/C endpoint: mean survival time, dose: 25.0 mg/kg/injection, schedule: Q01DX009 (ip), vehicle: Klucel (hydroxypropylcellulose) (HPC)); 130 [5 of 6 alive] and 133 % of control (T/C endpoint: mean survival time, dose: 50.0 mg/kg/injection, schedule: Q01DX009 (ip), vehicle: Klucel (hydroxypropylcellulose) (HPC)); 133 and 145 % of control (T/C endpoint: mean survival time, dose: 100.0 mg/kg/injection, schedule: Q01DX009 (ip), vehicle: Klucel (hydroxypropylcellulose) (HPC)); 136 and 145 % of control under setting [3]; 146 and 148 % of control under setting [4].

Turning to `O=C(O)c1ccc(N2C(=O)C=CC2=O)cc1` (tested in a mixture with another compound), the survivor count is reported as 0 of 6 under setting [5], 0 of 6 under setting [6] and 0 of 6 under setting [7].

Take `Cc1ccc(CNc2cc(C)ccn2)cc1`: the survivor count under setting [8] was 6 of 6.

Consider `CCOC(=O)C(CCC(O)C#N)(CC(C)=O)C(=O)OCC` (configuration not stated), for which the survivor count reads like this: under setting [9], 0 of 6; under setting [10], 0 of 6.

`O=C1C=C(Nc2nc(O)cc(=O)[nH]2)c2ccccc2C1=O`: the survivor count reads like this: under setting [3], 3 of 6; under setting [4], 0 of 6.

In the case of `C1N2CN3CN1CN(C2)C3.[Cl][Pt][Cl]`, the survivor count under setting [11] is 0 of 6 and the survivor count under setting [8] is reported as 0 of 6.

As to `CC(=O)NC1=C(Sc2ccc([N+](=O)[O-])cc2)C(=O)c2ccccc2C1=O`, the survivor count under setting [9] was 1 of 6 and the survivor count under setting [10] is recorded as 3 of 6.

As to `CC12CCC(=O)C=C1CCC1C2CCC2(C)C(C(=O)O)CCC12` (configuration not stated), the survivor count under setting [8] was 3 of 6.

With `OC12C3CC4C5C3C3(Cl)C(Cl)(Cl)C5(Cl)C(Cl)(C41)C23Cl` (configuration not stated), the survivor count (T/C endpoint: mean survival time, dose: 9.5 mg/kg/injection, schedule: Q01DX001 (ip), vehicle: other) is 2 of 6; the survivor count (T/C endpoint: mean survival time, dose: 19.0 mg/kg/injection, schedule: Q01DX001 (ip), vehicle: other) is 0 of 6; the survivor count (T/C endpoint: mean survival time, dose: 38.0 mg/kg/injection, schedule: Q01DX001 (ip), vehicle: other) was 0 of 6; the survivor count (T/C endpoint: mean survival time, dose: 75.0 mg/kg/injection, schedule: Q01DX001 (ip), vehicle: other) is 0 of 6; the survivor count (T/C endpoint: mean survival time, dose: 150.0 mg/kg/injection, schedule: Q01DX001 (ip), vehicle: other) was 0 of 6; the survivor count (T/C endpoint: mean survival time, dose: 300.0 mg/kg/injection, schedule: Q01DX001 (ip), vehicle: other) is 0 of 6.

As for `COc1cc(OC)c(NC(=O)OCCOc2cc(C)c(Cl)c(C)c2)cc1Cl`, the survivor count by setting is: (T/C endpoint: mean survival time, dose: 50.0 mg/kg/injection, schedule: Q01DX009 (ip), vehicle: saline with Tween-80) 3 of 3; under setting [6], 3 of 3.

As to `CCc1c(C)c(C)cc(S(=O)(=O)O)c1C`, under setting [8], the survivor count is 0 of 6.

Consider `COC(=O)c1ccccc1Cn1c(C)cnc1C`, for which the survivor count by setting is: under setting [1], 0 of 3; under setting [2], 0 of 3.

For `CSCCCCCCSC`, the survivor count under setting [8] is given as 4 of 6.

As to `O=C(CCl)Nc1cccc(Cl)c1`, the survivor count under setting [7] was 6 of 6.

Regarding `NC(=O)C#CC(N)=O`, the survivor count (T/C endpoint: mean survival time, dose: 6.0 mg/kg/injection, schedule: Q01DX009 (ip), vehicle: saline) is on record as 2 of 6 and the survivor count (T/C endpoint: mean survival time, dose: 12.0 mg/kg/injection, schedule: Q01DX009 (ip), vehicle: saline) was 0 of 6.

Regarding `COc1cccc(NC(=S)/C(=C(\[O-])c2ccc([N+](=O)[O-])cc2)[n+]2ccc(C(C)C)cc2)c1`, under setting [7], the survivor count is recorded as 1 of 6.

Take `CCCC(=O)OCC1OC(n2ccc(O)cc2=O)C(O)C1O` (configuration not stated): the T/C (T/C endpoint: median survival time, dose: 225.0 mg/kg/injection, schedule: Q01DX009 (ip), vehicle: saline + Tween-80 + alcohol) was 137 % of control.

Regarding `COc1ccc(CCNCCc2ccc(OC)c(OC)c2)cc1OC`, the survivor count under setting [12] is on record as 0 of 6.

On to `Cc1ccc(NCC(=O)O)c([N+](=O)[O-])c1`, for which the survivor count under setting [8] is given as 6 of 6.

For `O=C1OC(=O)C2C3C=CC(C3)C12` (configuration not stated), the survivor count by setting is: (T/C endpoint: mean survival time, dose: 100.0 mg/kg/injection, schedule: Q04DX003 (ip), vehicle: saline with Tween-80) 5 of 6; under setting [11], 1 of 6; under setting [8], 0 of 6.

For `CCC(=O)Nc1cc([N+](=O)[O-])cc([N+](=O)[O-])c1`, the survivor count (T/C endpoint: mean survival time, dose: 400.0 mg/kg/injection, schedule: Q04DX002 (ip), vehicle: saline with Tween-80) was 0 of 3.

Consider `CCCCC(=O)NN`, for which the survivor count under setting [5] is on record as 5 of 6.

As to `Cc1ccc(S(=O)(=O)OC2C(O)C(CO)OC2n2c(Br)c(C#N)c3c(N)ncnc32)cc1` (configuration not stated), the survivor count (T/C endpoint: mean survival time, dose: 400.0 mg/kg/injection, schedule: Q01DX005 (ip), vehicle: saline with Tween-80) is given as 2 of 4.

For `Oc1ccc(/C=N/N=C/c2ccc(O)c(O)c2)cc1O`, the survivor count is on record as 4 of 6 (T/C endpoint: median survival time, dose: 200.0 mg/kg/injection, schedule: Q01DX009 (ip), vehicle: saline with Tween-80) and 0 of 6 under setting [13].

As to `O=CNc1cccc2ccc3c4ccccc4ccc3c12`, the survivor count under setting [11] was 6 of 6.

`COc1ccc(C(C)c2cc3c(cc2OC)OCO3)cc1` (configuration not stated): the survivor count under setting [13] is on record as 0 of 5.

`C1CCC2C(C1)NC1CCCCC12` (configuration not stated): under setting [1], the survivor count is given as 0 of 6.

As to `CC(C)NCCO`, the survivor count is, setting by setting: under setting [10], 0 of 6; under setting [14], 0 of 4.

Consider `COc1ccc(C2=NC(C)Cc3cc(OC)c(OC)cc32)cc1OC` (configuration not stated), for which, under setting [12], the survivor count is recorded as 1 of 6.

For `NNC(=O)c1cccc[n+]1[O-]`, the survivor count reads like this: (T/C endpoint: mean survival time, dose: 200.0 mg/kg/injection, schedule: Q01DX001 (ip), vehicle: water) 0 of 6; (T/C endpoint: mean survival time, dose: 400.0 mg/kg/injection, schedule: Q01DX001 (ip), vehicle: water) 0 of 6; (T/C endpoint: mean survival time, dose: 800.0 mg/kg/injection, schedule: Q01DX001 (ip), vehicle: water) 0 of 6.

As for `CN(C)Cc1cccc(CN(C)C)c1O`, the survivor count (T/C endpoint: mean survival time, dose: 200.0 mg/kg/injection, schedule: Q01DX001 (ip), vehicle: saline) was 2 of 6 and the survivor count under setting [14] was 0 of 6.

With `CC(C)=CCC/C(C)=C/CN`, the survivor count is given as 4 of 6 (T/C endpoint: mean survival time, dose: 50.0 mg/kg/injection, schedule: Q01DX009 (ip), vehicle: saline); 2 of 6 under setting [1]; 1 of 6 (T/C endpoint: mean survival time, dose: 200.0 mg/kg/injection, schedule: Q04DX003 (ip), vehicle: saline); 0 of 6 (T/C endpoint: mean survival time, dose: 400.0 mg/kg/injection, schedule: Q04DX003 (ip), vehicle: saline).

Take `Cc1ccc(S(=O)(=O)n2nc(C3OC(CO)C(O)C3O)c(O)c2C(N)=O)cc1` (configuration not stated): the T/C (T/C endpoint: median survival time, dose: 178.5 mg/kg/injection, schedule: Q01DX005 (ip), vehicle: saline) is 132 % of control.

For the compound `O=C(O)c1[nH]c2c([N+](=O)[O-])cc([N+](=O)[O-])cc2c1C(=O)O`, the survivor count under setting [10] was 0 of 6.

For the compound `CCC(C1=NC(C)(C)CC(C)O1)c1ccccc1` (configuration not stated) (tested in a mixture with another compound), the survivor count under setting [7] is recorded as 0 of 6.

For the origin of these results see PubChem BioAssay AID256 (DTP/NCI, 2004).
